Results deposited as PubChem BioAssay AID1259254 (NCATS, 2017)

Aim: 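Gene knock-downs that lead to re-replication, shown by excess G2 DNA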 (primary screen)
Cells: human HCT116 colorectal cancer cells
Reagent: single siRNA against human genes
Time to read-out: 3 days
Detection: 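Nuclei stained with Hoechst and imaged; cell-cycle phase assigned by DNA content; G2 share scaled per plate, non-targeting siRNA 0%, GMNN siRNA 100%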
Scale: G2 robust z-score: higher = more G2 cells, more excess DNA replication
Hit rule: 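An siRNA counts as active if its G2 robust z-score lies at least 5 MADs above the screen median; here such calls match roughly 38% of GMNN control or more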
The deposit covers about 59,000 reagents; shown is a random part of them. About 1,550 of them (2.6%) count as active. 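G2 share is only a proxy for re-replication; each gene was hit by three separate siRNAs, and active genes were retested.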 Reagents against one gene are numbered here. Not all columns of the deposit are shown. Not given: the amount of reagent.

| target | siRNA no. | G2 robust z-score | outcome |
| --- | --- | --- | --- |
| ZNF43 | 1 | -0.646 | inactive |
| ZNF43 | 2 | -1.85 | inactive |
| ZNF43 | 3 | 0.965 | inactive |
| STK32A | 1 | -0.819 | inactive |
| STK32A | 2 | 0.634 | inactive |
| STK32A | 3 | -0.422 | inactive |
| DAPK1 | 1 | -0.44 | inactive |
| DAPK1 | 2 | 1.66 | inactive |
| DAPK1 | 3 | -0.717 | inactive |
| PPP1R3D | 1 | -1.36 | inactive |
| PPP1R3D | 2 | 2.41 | inactive |
| PPP1R3D | 3 | -0.509 | inactive |
| VKORC1L1 | 1 | -0.588 | inactive |
| VKORC1L1 | 2 | -0.639 | inactive |
| VKORC1L1 | 3 | -0.584 | inactive |
| ZIC5 | 1 | 0.0604 | inactive |
| ZIC5 | 2 | 0.344 | inactive |
| ZIC5 | 3 | -0.67 | inactive |
| TOR1AIP2 | 1 | 5.11 | active |
| TOR1AIP2 | 2 | -0.664 | inactive |
| TOR1AIP2 | 3 | -0.331 | inactive |
| TOR1AIP2 | 4 | 0.0635 | inactive |
| TOR1AIP2 | 5 | -0.92 | inactive |
| TOR1AIP2 | 6 | 0.427 | inactive |
| PYCR2 | 1 | -0.588 | inactive |
| PYCR2 | 2 | -1.05 | inactive |
| PYCR2 | 3 | -0.736 | inactive |
| RAB5IF | 1 | -0.816 | inactive |
| RAB5IF | 2 | 0.188 | inactive |
| RAB5IF | 3 | -0.655 | inactive |
| STON1 | 1 | -1.18 | inactive |
| STON1 | 2 | -0.421 | inactive |
| STON1 | 3 | -0.459 | inactive |
| LLGL2 | 1 | -0.241 | inactive |
| LLGL2 | 2 | -0.878 | inactive |
| LLGL2 | 3 | 1.16 | inactive |
| UTRN | 1 | 5.82 | active |
| UTRN | 2 | -1.35 | inactive |
| UTRN | 3 | -0.579 | inactive |
| FGF4 | 1 | -0.677 | inactive |
| FGF4 | 2 | -0.797 | inactive |
| FGF4 | 3 | -0.125 | inactive |
| PYY | 1 | -0.782 | inactive |
| PYY | 2 | 0.523 | inactive |
| PYY | 3 | 0.112 | inactive |
| OR10A7 | 1 | 0.429 | inactive |
| OR10A7 | 2 | -0.6 | inactive |
| OR10A7 | 3 | 0.933 | inactive |
| IFNA1 | 1 | -0.803 | inactive |
| IFNA1 | 2 | -0.0103 | inactive |
| IFNA1 | 3 | 0.843 | inactive |
| NCK2 | 1 | 3.05 | inactive |
| NCK2 | 2 | -0.172 | inactive |
| NCK2 | 3 | 0.59 | inactive |
| BMP7 | 1 | -0.66 | inactive |
| BMP7 | 2 | 3.44 | inactive |
| BMP7 | 3 | -0.609 | inactive |
| RBKS | 1 | 0.941 | inactive |
| RBKS | 2 | -0.997 | inactive |
| RBKS | 3 | 1.17 | inactive |
| PLEKHG5 | 1 | 0.0428 | inactive |
| PLEKHG5 | 2 | -1.12 | inactive |
| PLEKHG5 | 3 | 4.89 | inactive |
| SHROOM3 | 1 | -0.875 | inactive |
| SHROOM3 | 2 | -1.42 | inactive |
| SHROOM3 | 3 | 1.7 | inactive |
| SDC2 | 1 | 0.702 | inactive |
| SDC2 | 2 | 0.523 | inactive |
| SDC2 | 3 | 2.13 | inactive |

Laid out differently: 9 of the entries above.
target | siRNA no. | G2 robust z-score | outcome
STON1 | 2 | -0.421 | inactive
STON1 | 3 | -0.459 | inactive
LLGL2 | 1 | -0.241 | inactive
LLGL2 | 2 | -0.878 | inactive
LLGL2 | 3 | 1.16 | inactive
UTRN | 1 | 5.82 | active
UTRN | 2 | -1.35 | inactive
UTRN | 3 | -0.579 | inactive
FGF4 | 1 | -0.677 | inactive
